B1: Cdk2ap1 (protein, UniProt O35207 1-114)
chain: MSYKPNLTAHMPAAALNAGSVHSPSTSMATSSQYRQLLSDYGPPSLGYTQGTGNSQVPQSKYAELLAIIEELGKEIRPTYAGSKSAMERLKRGIIHARSLVRECLAETERNARS

Chains of the proteins cited; added tags and fusions are not shown.
UniProt Q9R190: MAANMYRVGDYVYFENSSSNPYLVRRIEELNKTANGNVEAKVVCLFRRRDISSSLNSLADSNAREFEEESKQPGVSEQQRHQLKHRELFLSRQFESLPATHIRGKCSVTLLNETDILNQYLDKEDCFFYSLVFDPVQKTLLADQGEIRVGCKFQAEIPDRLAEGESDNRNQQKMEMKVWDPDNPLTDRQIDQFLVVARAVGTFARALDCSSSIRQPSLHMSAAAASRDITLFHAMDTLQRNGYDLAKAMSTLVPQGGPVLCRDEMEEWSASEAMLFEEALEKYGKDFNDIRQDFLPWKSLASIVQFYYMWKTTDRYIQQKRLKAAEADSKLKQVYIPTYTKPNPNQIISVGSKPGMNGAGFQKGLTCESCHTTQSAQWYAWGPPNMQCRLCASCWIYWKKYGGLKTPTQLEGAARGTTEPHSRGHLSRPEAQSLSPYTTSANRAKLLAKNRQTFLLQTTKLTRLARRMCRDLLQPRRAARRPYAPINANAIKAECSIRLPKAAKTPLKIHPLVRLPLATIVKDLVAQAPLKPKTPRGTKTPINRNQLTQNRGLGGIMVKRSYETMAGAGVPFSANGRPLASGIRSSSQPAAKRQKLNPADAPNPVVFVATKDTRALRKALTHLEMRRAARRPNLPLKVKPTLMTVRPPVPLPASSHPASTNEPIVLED
UniProt Q6PDQ2: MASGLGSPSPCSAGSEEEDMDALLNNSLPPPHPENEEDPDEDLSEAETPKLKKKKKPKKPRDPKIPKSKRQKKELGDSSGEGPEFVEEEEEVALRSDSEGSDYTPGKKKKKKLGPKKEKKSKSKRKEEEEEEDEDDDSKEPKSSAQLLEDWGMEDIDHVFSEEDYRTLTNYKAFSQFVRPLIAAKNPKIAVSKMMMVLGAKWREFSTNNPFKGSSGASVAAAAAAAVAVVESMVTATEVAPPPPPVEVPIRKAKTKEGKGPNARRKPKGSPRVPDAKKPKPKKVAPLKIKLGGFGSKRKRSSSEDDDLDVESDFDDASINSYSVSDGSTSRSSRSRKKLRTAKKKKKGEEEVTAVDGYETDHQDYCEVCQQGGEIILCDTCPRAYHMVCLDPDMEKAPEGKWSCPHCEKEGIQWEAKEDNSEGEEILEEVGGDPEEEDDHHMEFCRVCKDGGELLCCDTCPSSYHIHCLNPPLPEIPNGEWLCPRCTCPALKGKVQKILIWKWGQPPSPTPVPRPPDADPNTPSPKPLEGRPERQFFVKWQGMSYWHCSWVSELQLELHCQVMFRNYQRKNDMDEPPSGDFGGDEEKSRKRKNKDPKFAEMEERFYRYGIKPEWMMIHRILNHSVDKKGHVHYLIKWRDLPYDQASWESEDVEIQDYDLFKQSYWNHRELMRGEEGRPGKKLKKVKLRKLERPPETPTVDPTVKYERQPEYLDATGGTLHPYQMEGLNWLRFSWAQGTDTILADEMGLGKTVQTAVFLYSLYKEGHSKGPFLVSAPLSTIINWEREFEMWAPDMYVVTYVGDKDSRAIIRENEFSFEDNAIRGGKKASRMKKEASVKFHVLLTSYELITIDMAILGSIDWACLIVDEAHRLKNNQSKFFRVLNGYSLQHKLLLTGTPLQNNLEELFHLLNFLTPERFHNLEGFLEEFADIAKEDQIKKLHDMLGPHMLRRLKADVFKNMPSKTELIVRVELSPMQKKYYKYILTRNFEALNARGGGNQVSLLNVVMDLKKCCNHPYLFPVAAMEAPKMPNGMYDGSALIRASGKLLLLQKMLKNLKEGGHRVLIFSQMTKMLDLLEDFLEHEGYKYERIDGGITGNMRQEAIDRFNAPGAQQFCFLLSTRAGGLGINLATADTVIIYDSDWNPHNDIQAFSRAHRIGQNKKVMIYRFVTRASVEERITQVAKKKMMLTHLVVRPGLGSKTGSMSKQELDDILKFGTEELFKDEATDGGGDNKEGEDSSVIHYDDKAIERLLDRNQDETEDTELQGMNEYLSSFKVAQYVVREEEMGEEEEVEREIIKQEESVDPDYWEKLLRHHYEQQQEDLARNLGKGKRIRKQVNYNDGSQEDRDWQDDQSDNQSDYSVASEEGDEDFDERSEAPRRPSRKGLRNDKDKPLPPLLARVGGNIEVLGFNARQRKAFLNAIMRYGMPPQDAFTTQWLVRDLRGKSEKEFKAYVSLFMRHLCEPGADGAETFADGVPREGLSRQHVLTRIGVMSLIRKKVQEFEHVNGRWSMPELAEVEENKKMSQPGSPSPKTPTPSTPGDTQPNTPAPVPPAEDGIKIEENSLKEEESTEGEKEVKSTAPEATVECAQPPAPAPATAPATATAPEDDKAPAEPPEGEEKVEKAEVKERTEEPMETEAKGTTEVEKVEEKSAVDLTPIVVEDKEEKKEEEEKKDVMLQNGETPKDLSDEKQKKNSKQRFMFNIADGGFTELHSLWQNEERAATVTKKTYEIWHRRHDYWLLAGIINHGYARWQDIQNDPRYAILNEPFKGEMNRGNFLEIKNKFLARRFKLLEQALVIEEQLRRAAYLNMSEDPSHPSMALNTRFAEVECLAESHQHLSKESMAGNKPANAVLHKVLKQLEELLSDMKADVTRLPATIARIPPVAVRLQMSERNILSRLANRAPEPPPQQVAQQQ
UniProt Q8VHR5: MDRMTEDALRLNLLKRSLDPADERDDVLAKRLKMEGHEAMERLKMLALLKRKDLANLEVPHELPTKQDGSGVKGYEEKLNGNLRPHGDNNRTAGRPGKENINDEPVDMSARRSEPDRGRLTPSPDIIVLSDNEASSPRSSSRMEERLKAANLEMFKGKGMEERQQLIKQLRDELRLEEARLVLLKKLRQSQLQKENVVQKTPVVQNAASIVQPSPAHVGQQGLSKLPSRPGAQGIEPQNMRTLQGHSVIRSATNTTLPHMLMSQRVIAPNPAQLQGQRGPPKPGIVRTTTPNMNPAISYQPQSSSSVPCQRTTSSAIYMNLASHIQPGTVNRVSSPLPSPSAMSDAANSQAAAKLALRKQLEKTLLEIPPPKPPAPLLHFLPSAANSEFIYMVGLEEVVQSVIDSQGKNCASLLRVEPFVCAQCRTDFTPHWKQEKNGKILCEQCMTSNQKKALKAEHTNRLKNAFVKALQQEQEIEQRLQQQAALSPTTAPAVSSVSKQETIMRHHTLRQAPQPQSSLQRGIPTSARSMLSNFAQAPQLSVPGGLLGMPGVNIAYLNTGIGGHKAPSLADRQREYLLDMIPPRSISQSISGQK
UniProt P70288: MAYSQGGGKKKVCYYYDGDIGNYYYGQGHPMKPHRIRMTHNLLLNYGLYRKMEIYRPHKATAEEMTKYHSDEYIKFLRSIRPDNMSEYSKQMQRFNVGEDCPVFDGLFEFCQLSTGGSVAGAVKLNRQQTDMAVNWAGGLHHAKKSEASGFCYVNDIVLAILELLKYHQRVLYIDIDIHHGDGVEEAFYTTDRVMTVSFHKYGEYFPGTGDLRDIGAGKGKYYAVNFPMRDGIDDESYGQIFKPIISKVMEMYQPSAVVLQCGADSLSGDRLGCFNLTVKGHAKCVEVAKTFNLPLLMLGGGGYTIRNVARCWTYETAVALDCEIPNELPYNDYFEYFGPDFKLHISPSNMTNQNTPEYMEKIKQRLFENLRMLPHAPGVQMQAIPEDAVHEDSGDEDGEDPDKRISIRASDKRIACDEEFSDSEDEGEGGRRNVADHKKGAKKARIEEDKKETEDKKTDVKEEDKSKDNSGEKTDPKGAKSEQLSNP
UniProt Q8K4B0: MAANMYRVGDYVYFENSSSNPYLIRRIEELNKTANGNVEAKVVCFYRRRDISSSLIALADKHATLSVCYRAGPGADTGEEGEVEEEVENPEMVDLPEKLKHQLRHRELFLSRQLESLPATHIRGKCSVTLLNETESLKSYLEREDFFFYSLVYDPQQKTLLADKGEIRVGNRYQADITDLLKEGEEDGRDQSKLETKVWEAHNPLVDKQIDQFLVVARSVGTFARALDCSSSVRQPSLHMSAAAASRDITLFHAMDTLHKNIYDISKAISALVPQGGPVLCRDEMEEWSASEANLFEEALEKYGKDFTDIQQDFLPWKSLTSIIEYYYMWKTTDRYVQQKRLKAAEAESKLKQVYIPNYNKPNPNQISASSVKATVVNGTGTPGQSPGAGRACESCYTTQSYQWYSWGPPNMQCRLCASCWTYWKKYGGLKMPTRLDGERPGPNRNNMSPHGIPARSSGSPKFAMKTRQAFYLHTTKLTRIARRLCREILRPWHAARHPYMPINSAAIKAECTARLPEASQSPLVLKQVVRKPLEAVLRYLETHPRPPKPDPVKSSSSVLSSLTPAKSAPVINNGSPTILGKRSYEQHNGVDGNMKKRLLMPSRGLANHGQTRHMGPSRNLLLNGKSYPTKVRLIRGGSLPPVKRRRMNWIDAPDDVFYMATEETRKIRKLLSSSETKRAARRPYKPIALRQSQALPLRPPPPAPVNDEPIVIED
UniProt Q924K8: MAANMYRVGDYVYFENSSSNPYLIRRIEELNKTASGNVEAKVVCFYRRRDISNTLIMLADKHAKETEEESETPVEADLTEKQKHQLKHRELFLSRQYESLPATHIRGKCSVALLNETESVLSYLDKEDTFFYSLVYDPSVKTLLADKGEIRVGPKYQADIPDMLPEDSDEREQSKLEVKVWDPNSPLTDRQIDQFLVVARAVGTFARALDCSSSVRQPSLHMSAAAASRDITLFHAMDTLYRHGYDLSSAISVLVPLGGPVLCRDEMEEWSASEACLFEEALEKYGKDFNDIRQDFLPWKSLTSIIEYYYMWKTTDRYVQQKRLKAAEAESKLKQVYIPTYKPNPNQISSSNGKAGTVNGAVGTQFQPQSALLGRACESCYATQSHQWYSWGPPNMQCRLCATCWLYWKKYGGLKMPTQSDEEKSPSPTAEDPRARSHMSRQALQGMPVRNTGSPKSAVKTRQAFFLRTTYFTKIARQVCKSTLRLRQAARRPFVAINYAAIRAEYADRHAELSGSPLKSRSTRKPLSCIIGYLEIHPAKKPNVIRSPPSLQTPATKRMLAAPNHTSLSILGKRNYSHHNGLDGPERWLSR

Results are given in words; binding and its absence hold for the method and conditions named. In cells and extracts the contact can be indirect. A yes stands for co-enrichment or nearness to the bait. Other partners may have been found.

One experiment addresses Mta2-FTAP (mouse) (UniProt Q9R190). Description: affinity purification with mass spectrometry; anti-FLAG affinity purification of Mta2-FTAP from mouse ESC lysate (lysis at 450 mM NaCl, 0.2% Nonidet P-40, diluted to 150 mM NaCl, 0.1% Nonidet P-40), native elution with 3x FLAG peptide, BN-PAGE, 48 slices, LC-MS/MS and protein correlation profiling; replicates with and without benzonase.
Regarding “Chd4 (from UniProt Q6PDQ2 1-1915) (enzyme)”, the binding result was “binds”.

As to Gatad2b (from UniProt Q8VHR5 1-594), the binding result is recorded as “binds”.

With “Hdac2 (from UniProt P70288 1-488) (enzyme)”, the binding result is “binds”.

Take Mta1 (from UniProt Q8K4B0 1-715): the binding entry is listed as “binds”.

Turning to Mta3 (from UniProt Q924K8 1-591), the binding entry is “binds”.

The target is the same in the next experiment. Described as above. This is another data set of the same source.
For B1, the binding result is on record as “binds”.

The values are drawn from publication PMC4813707.
